The list does not hold the whole screen: it gathers tests that were run many times, whatever their T/C, doses with no T/C, and many T/C values between a quarter and a half above the control. Further doses and runs are listed elsewhere. T/C: endpoint of the treated group in % of that of the vehicle group. Some entries give survivors of the animals treated and no T/C: the source files T/C as zero there, which appears to mark a toxic dose or a test without result, not a measured value. Some survivor counts are full or nearly so, which does not show that the dose was tolerated: the source hardly ever lists a survival T/C far under the control, and the zero likely stands for such cases as well. Counts of survivors are from the toxicity check (mostly the fifth day) where no day follows; animals may have died later. Schedule codes are those of the source, taken here to give the interval after Q, in days (D) or hours (H), and the number of doses after X. For survival time, this PubChem deposit counts one and a half times the control or more as active, and values a quarter to a half above the control carry no call in these data; other NCI protocols may use other cut-offs. Some doses were run more than once; the values are given in rising order. Some T/C values are followed by the survivors on the day toxicity was checked, most often the fifth; where none is given, no animal had died by that day.
Tested on: L1210 leukemia ip in BDF1 mice, survival T/C
Experiment: NCI In Vivo Anticancer Drug Screen. Data for tumor model L1210 Leukemia (intraperitoneal) in B6D2F1 (BDF1) mice
Conditions: T/C endpoint: mean survival time, higher T/C = longer survival
[1] = dose: 200.0 mg/kg/injection, schedule: Q04DX002 (ip), vehicle: Klucel (hydroxypropylcellulose) (HPC)
[2] = dose: 400.0 mg/kg/injection, schedule: Q01DX001 (ip), vehicle: saline
[3] = dose: 50.0 mg/kg/injection, schedule: Q01DX009 (ip), vehicle: saline
[4] = dose: 300.0 mg/kg/injection, schedule: Q01DX001 (ip), vehicle: saline
[5] = dose: 400.0 mg/kg/injection, schedule: Q01DX009 (ip), vehicle: saline

Question: For `O=C1NC(c2cccs2)(c2cccs2)C(=O)N1Cl`, which survivor count (dose: 100.0 mg/kg/injection, schedule: Q01DX009 (ip), vehicle: water) is on record?
Answer: 3 of 6

Question: What about the survivor count (dose: 200.0 mg/kg/injection, schedule: Q04DX003 (ip), vehicle: water) of the same compound?
Answer: 3 of 6

Question: What about the survivor count (dose: 400.0 mg/kg/injection, schedule: Q04DX003 (ip), vehicle: water) of the same compound?
Answer: 0 of 6

Question: Which survivor count (dose: 100.0 mg/kg/injection, schedule: Q04DX003 (ip), vehicle: saline) does the source give for `C=C=CC(C)(C)C` here?
Answer: 3 of 6

Question: How did the T/C [1] turn out when `O=C(/C=C/c1ccccc1)N/N=C/c1ccccc1Cl` was run?
Answer: 126 % of control

Question: With `CCCCN=C([Se])NCCCC` as the compound, how does the survivor count (dose: 120.0 mg/kg/injection, schedule: Q01DX015 (ip), vehicle: carboxymethylcellulose (CMC)) read?
Answer: 0 of 6

Question: `O=c1scc(-c2ccc(C(F)(F)F)cc2)s1` was tested. Which survivor count (dose: 100.0 mg/kg/injection, schedule: Q04DX002 (ip), vehicle: Klucel (hydroxypropylcellulose) (HPC)) did it give?
Answer: 0 of 3

Question: What about the survivor count [1] of the same compound?
Answer: 1 of 3

Question: What about the survivor count (dose: 400.0 mg/kg/injection, schedule: Q04DX002 (ip), vehicle: Klucel (hydroxypropylcellulose) (HPC)) of the same compound?
Answer: 0 of 3

Question: With `O=COc1ccc([N+](=O)[O-])cc1` as the compound, how does the survivor count (dose: 200.0 mg/kg/injection, schedule: Q04DX003 (ip), vehicle: saline) read?
Answer: 2 of 6

Question: What about the survivor count (dose: 400.0 mg/kg/injection, schedule: Q04DX003 (ip), vehicle: saline) of the same compound?
Answer: 1 of 6

Question: `O=C1NC(=S)N/C1=C\c1ccco1` was tested. Which survivor count (dose: 200.0 mg/kg/injection, schedule: Q01DX001 (ip), vehicle: saline) did it give?
Answer: 1 of 6

Question: What about the survivor count [2] of the same compound?
Answer: 1 of 6

Question: With `Cc1ccc(S(=O)(=O)OCCN(CCOS(=O)(=O)c2ccc(C)cc2)c2ccc(F)cc2)cc1` as the compound, how does the T/C (dose: 2.9 mg/kg/injection, schedule: Q01DX009 (ip), vehicle: saline) read?
Answer: 127 % of control

Question: And the T/C (dose: 4.4 mg/kg/injection, schedule: Q01DX009 (ip), vehicle: saline)?
Answer: 131 % of control

Question: What about the T/C (dose: 6.6 mg/kg/injection, schedule: Q01DX009 (ip), vehicle: saline) of the same compound?
Answer: 131 % of control

Question: And the T/C (dose: 10.0 mg/kg/injection, schedule: Q01DX009 (ip), vehicle: saline)?
Answer: 134 and 142 % of control

Question: What about the T/C (dose: 14.0 mg/kg/injection, schedule: Q01DX009 (ip), vehicle: saline) of the same compound?
Answer: 136 % of control

Question: And the T/C (dose: 16.0 mg/kg/injection, schedule: Q01DX009 (ip), vehicle: saline)?
Answer: 137 % of control

Question: And the T/C (dose: 22.0 mg/kg/injection, schedule: Q01DX009 (ip), vehicle: acetone)?
Answer: 130 % of control

Question: What about the T/C (dose: 23.0 mg/kg/injection, schedule: Q01DX009 (ip), vehicle: other) of the same compound?
Answer: 126 % of control

Question: And the T/C (dose: 35.0 mg/kg/injection, schedule: Q01DX009 (ip), vehicle: acetone)?
Answer: 133 % of control

Question: And the T/C (dose: 35.0 mg/kg/injection, schedule: Q01DX009 (ip), vehicle: other)?
Answer: 126 % of control

Question: What about the T/C (dose: 50.0 mg/kg/injection, schedule: Q01DX009 (ip), vehicle: acetone) of the same compound?
Answer: 133 % of control

Question: What about the T/C [3] of the same compound?
Answer: 147 % of control

Question: And the T/C (dose: 53.0 mg/kg/injection, schedule: Q01DX009 (ip), vehicle: saline)?
Answer: 133 % of control [5 of 6 alive]

Question: What about the T/C (dose: 79.0 mg/kg/injection, schedule: Q01DX009 (ip), vehicle: saline) of the same compound?
Answer: 137 % of control

Question: And the survivor count (dose: 115.0 mg/kg/injection, schedule: Q01DX009 (ip), vehicle: saline)?
Answer: 5 of 6

Question: And the survivor count (dose: 170.0 mg/kg/injection, schedule: Q01DX009 (ip), vehicle: saline)?
Answer: 3 of 6

Question: And the survivor count (dose: 177.0 mg/kg/injection, schedule: Q01DX009 (ip), vehicle: other)?
Answer: 6 of 6

Question: And the survivor count (dose: 266.0 mg/kg/injection, schedule: Q01DX009 (ip), vehicle: other)?
Answer: 6 of 6

Question: And the survivor count (dose: 300.0 mg/kg/injection, schedule: Q01DX009 (ip), vehicle: saline)?
Answer: 6 of 6

Question: What about the survivor count (dose: 400.0 mg/kg/injection, schedule: Q01DX009 (ip), vehicle: other) of the same compound?
Answer: 0 of 6

Question: What about the survivor count (dose: 600.0 mg/kg/injection, schedule: Q01DX009 (ip), vehicle: other) of the same compound?
Answer: 5 of 6

Question: How did the survivor count (dose: 400.0 mg/kg/injection, schedule: Q01DX009 (ip), vehicle: Klucel (hydroxypropylcellulose) (HPC)) turn out when `Oc1cccc2c(NC(=S)Nc3ccccc3)cccc12` was run?
Answer: 4 of 6

Question: For `O=NN(CCCl)C(=O)Nc1ccc2c(c1)CCCC2`, which T/C (dose: 16.0 mg/kg/injection, schedule: Q01DX001 (ip), vehicle: carboxymethylcellulose (CMC)) is on record?
Answer: 130 % of control

Question: What about the T/C (dose: 55.0 mg/kg/injection, schedule: Q01DX001 (ip), vehicle: carboxymethylcellulose (CMC)) of the same compound?
Answer: 142 % of control

Question: And the T/C (dose: 62.0 mg/kg/injection, schedule: Q01DX001 (ip), vehicle: carboxymethylcellulose (CMC))?
Answer: 134 % of control

Question: And the survivor count (dose: 375.0 mg/kg/injection, schedule: Q01DX001 (ip), vehicle: carboxymethylcellulose (CMC))?
Answer: 4 of 6

Question: And the survivor count (dose: 476.0 mg/kg/injection, schedule: Q01DX001 (ip), vehicle: carboxymethylcellulose (CMC))?
Answer: 2 of 10

Question: And the survivor count (dose: 500.0 mg/kg/injection, schedule: Q01DX001 (ip), vehicle: carboxymethylcellulose (CMC))?
Answer: 0 of 6

Question: And the survivor count (dose: 750.0 mg/kg/injection, schedule: Q01DX001 (ip), vehicle: carboxymethylcellulose (CMC))?
Answer: 0 of 6

Question: And the survivor count (dose: 1000.0 mg/kg/injection, schedule: Q01DX001 (ip), vehicle: carboxymethylcellulose (CMC))?
Answer: 0 of 6

Question: For `COC1C=CC2C3Cc4ccc(O)c5c4C2(CCN3C)C1O5` (stereo not drawn), which survivor count [4] is on record?
Answer: 0 of 6

Question: For `OCC1OC(n2cc(Br)c3c2ncn2nnnc32)C(O)C1O` (stereo not drawn), which survivor count (dose: 50.0 mg/kg/injection, schedule: Q01DX005 (ip), vehicle: saline) is on record?
Answer: 1 of 4

Question: And the survivor count (dose: 100.0 mg/kg/injection, schedule: Q01DX005 (ip), vehicle: saline)?
Answer: 0 of 4

Question: What about the survivor count (dose: 200.0 mg/kg/injection, schedule: Q01DX005 (ip), vehicle: saline) of the same compound?
Answer: 0 of 4

Question: Which survivor count [4] does the source give for `C[N+]1(C2CC3CCC2C3=O)CCOCC1` (stereo not drawn) here?
Answer: 2 of 6

Question: Which survivor count [1] does the source give for `Oc1cc(Br)c(O)c(Br)c1` here?
Answer: 0 of 3

Question: `CC12C=CC(CC1)C2(C)C` (stereo not drawn) was tested. Which survivor count [5] did it give?
Answer: 6 of 6

Question: Which survivor count [2] does the source give for `COc1ccc(N(CCO)CCO)cc1` here?
Answer: 2 of 4

Question: For `CN1CCC(OC(=O)C(O)C2CCCCC2)CC1` (stereo not drawn), which survivor count (dose: 400.0 mg/kg/injection, schedule: Q04DX003 (ip), vehicle: Klucel (hydroxypropylcellulose) (HPC)) is on record?
Answer: 1 of 6

Question: Which results are given for `CN(C)/N=C/c1ccc[n+](C)c1`?
Answer: survivor count [3]: 1 of 6; survivor count (dose: 100.0 mg/kg/injection, schedule: Q01DX009 (ip), vehicle: saline): 0 of 6; survivor count (dose: 200.0 mg/kg/injection, schedule: Q01DX009 (ip), vehicle: saline): 0 of 6; survivor count [5]: 0 of 6

Question: Which results are given for `CCCCCCCCCC(O)CCCC` (stereo not drawn)?
Answer: survivor count (dose: 200.0 mg/kg/injection, schedule: Q01DX009 (ip), vehicle: saline with Tween-80): 4 of 6; survivor count (dose: 400.0 mg/kg/injection, schedule: Q01DX009 (ip), vehicle: saline with Tween-80): 4 of 6

— PubChem BioAssay AID248 (DTP/NCI, 2004)
